The other results are listed elsewhere or left out. Further columns of the screen follow, without active or inactive calls. Compounds called inactive in the main read-out are mostly missing here. The note in brackets gives the kind of curve behind each potency; many fits are weak.
Assay: qHTS Assay for Lipid Storage Modulators in Drosophila S3 Cells;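 for cell number change: cells counted by Cell Tracker Red CMTPX staining in the red channel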
Details: BODIPY lipid droplet fluorescence, 18-24 h; for cell number change: measured here: cell count max response, cells fed with added oleic acid
Procedure, shortened: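 Drosophila S3 cells got compounds at several concentrations plus oleic acid (400 uM solution). Laser-scanning cytometry with 488 nm excitation read lipid droplets at 500-530 nm and cells at 575-640 nm. Percent activity was relative to 20 uM Triacsin C.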

[1] = measured here: cell number channel AC50, cells fed with added oleic acid
[2] = measured here: lipid fluorescence (Fed channel) AC50, cells fed with added oleic acid

CC(=O)Nc1cccc(C(=O)Nc2ccccc2N2CCOCC2)c1
cell number change: 83.7%
AC50 [1]: 5.17 µM [rising, partial curve]

Cc1ccc(Sc2nc(C)c([N+](=O)[O-])c(C)c2C#N)cc1
cell number change: 28.7%
AC50 [2]: 3.66 µM [rising, single point]

O=C(CC1CCCC1)NCCc1cn2ccccc2n1
cell number change: -13%
AC50 [1]: 1.84 µM [falling, full curve, poor fit]
AC50 [2]: 29.1 µM [falling, single point]

COc1ccc(C(=O)/C=C/c2cn(CN3CCN(C)CC3)c3ccccc23)cc1
cell number change: -146%
AC50 [2]: 0.231 µM [falling, full curve, poor fit]

O=C(O)c1cccc(-c2ccc(/C=N/Nc3nn[nH]n3)o2)c1
cell number change: -11.7%
AC50 [1]: 0.00461 µM [falling, full curve, poor fit]
AC50 [2]: 4.11 µM [falling, full curve, poor fit]

COc1ccc(NC(=O)c2sc(NC(=O)COc3ccccc3)nc2C)cc1
cell number change: 22.4%

COc1ccc(NC(=O)c2cnn(-c3ccccc3)c2C)c(OC)c1
cell number change: -11.3%
AC50 [2]: 0.58 µM [falling, single point]

CCOc1ccc(C2/C(=C(/O)c3ccc4c(c3)CC(C)O4)C(=O)C(=O)N2CC2CCCO2)cc1 (stereo not drawn)
cell number change: -19.5%
AC50 [2]: 29.1 µM [rising, single point]

COC(=O)[C@H](Cc1ccccc1)NS(=O)(=O)N[C@@H](Cc1ccccc1)C(=O)OC
cell number change: -0.245%
AC50 [2]: 10.3 µM [rising, partial curve]

O=C(Nc1ccn(Cc2ccc(Cl)cc2)n1)c1ccc2c(c1)OCO2
cell number change: 86.1%
AC50 [1]: 18.4 µM [rising, single point]

CC(C)c1ccccc1NC(=O)CNCCc1ccc(C(F)(F)F)cc1
cell number change: -34.9%
AC50 [1]: 14.6 µM [falling, single point]
AC50 [2]: 29.1 µM [falling, single point]

CNCc1cc2ccc(C)cc2[nH]c1=O
cell number change: 2.03%

Cn1c(CCNC(=O)C2CCCCC2)nc2cc(NC(=O)c3cccs3)ccc21
cell number change: 37.2%
AC50 [1]: 4.11 µM [rising, full curve, poor fit]
AC50 [2]: 0.411 µM [rising, full curve, poor fit]

COc1ccc(Cc2nnc(SCc3nc4ccccc4c(=O)[nH]3)n2C)cc1
cell number change: -2.7%

Cc1cc([N+](=O)[O-])ccc1NC(=O)CSc1nccc(=O)[nH]1
cell number change: 3.05%
AC50 [1]: 0.146 µM [falling, full curve, poor fit]
AC50 [2]: 8.2 µM [falling, partial curve]

O=C1C=C(c2ccc3c(c2)OCO3)C[C@@H](c2ccc(Cl)cc2)C1
cell number change: -12.6%
AC50 [1]: 1.84 µM [falling, partial curve, poor fit]
AC50 [2]: 0.00461 µM [falling, full curve, poor fit]

O=C(Nc1ccc(Cl)c(Cl)c1)Nc1ccccc1NS(=O)(=O)c1cccs1
cell number change: -13%
AC50 [2]: 32.6 µM [falling, single point]

CC1CCc2c(sc3ncn4c(SCC(=O)NCc5ccco5)nnc4c23)C1 (stereo not drawn)
cell number change: 24.1%
AC50 [1]: 0.82 µM [rising, full curve, poor fit]

O=C(CCN1C(=O)c2ccccc2C1=O)OCN1C(=O)c2ccccc2C1=O
cell number change: 2.13%

O=C1c2ccccc2C(Nc2ccc(F)c(Cl)c2)N1Cc1ccco1 (stereo not drawn)
cell number change: 11.1%
AC50 [2]: 5.17 µM [rising, partial curve, poor fit]

O=C(NCc1ccco1)C1CN(S(=O)(=O)c2ccccc2)CCN1S(=O)(=O)c1ccccc1 (stereo not drawn)
cell number change: 1.23%
AC50 [2]: 3.66 µM [rising, single point]

COc1ccc(-c2nc(CN3CCN(c4ncnc5ccccc45)CC3)c(C)o2)c(OC)c1
cell number change: -45.2%
AC50 [1]: 16.4 µM [falling, partial curve, poor fit]
AC50 [2]: 0.103 µM [falling, full curve, poor fit]

O=C(Nc1ccccc1Cl)c1cc2ccccc2o/c1=N\O
cell number change: -25.3%
AC50 [2]: 6.51 µM [falling, single point]

O=C(/C=C/c1cccc([N+](=O)[O-])c1)NC(=S)Nc1ccc(CN2CCOCC2)cc1
cell number change: -4.98%
AC50 [2]: 0.13 µM [falling, full curve, poor fit]

CCc1nc(N2CCCC2C(=O)O)c2oc3ccccc3c2n1 (stereo not drawn)
cell number change: -3.69%
AC50 [2]: 29.1 µM [falling, partial curve, poor fit]

CCOc1ccc2[nH]c(=O)c(CN(Cc3ccco3)Cc3nnnn3Cc3ccccc3)cc2c1
cell number change: 19%
AC50 [2]: 2.31 µM [rising, partial curve]

C#CCOCCOCCOCCNc1nc(N2CCN(C(=O)CCCCCCCCCCNC(=O)Cn3cc(C[C@@H](C)O)nn3)CC2)nc(N2CCN(C(=O)CCCCCCCCCCNC(=O)Cn3cc(C[C@@H](C)O)nn3)CC2)n1
cell number change: 97.5%
AC50 [1]: 29.1 µM [rising, single point]
AC50 [2]: 14.6 µM [falling, partial curve, poor fit]

— PubChem BioAssay AID2685 (National Center for Advancing Translational Sciences (NCATS), 2010)
